PubChem BioAssay AID504793 – Drosophila RNAi Screening Center, 2011

Aim: 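Knock-downs allowing continued mitosis even though DNA is damaged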 (primary screen)
System: Drosophila S2R+ cells
Knock-down reagent: long dsRNA against Drosophila genes, about 0.25 µg dsRNA per well
Duration: 4 days of dsRNA, then 4 hours of drug before read-out
Challenge: doxorubicin 0.5 µM for 4 hours to cause double-strand breaks, in cells also given a low, harmless dose of dsRNA against nbs to sensitise the assay
Detection: 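Per-well count of mitotic cells stained for phospho-histone H3 after doxorubicin exposure, used as mitotic index; counts are raw and not normalised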
Direction: mitotic cells: higher = more cells in mitosis, weaker G2 arrest
Call rule: 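Genes are called active only when high mitotic counts were reproduced with independent dsRNAs and mitosis was checked for delay without damage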
Meaning of the calls: active = confirmed in follow-up tests; inactive = not confirmed
The deposit covers about 23,000 reagents; below is an unselected part of those with a known target gene and a result. Over the whole deposit, 62 (0.27%) are marked active. 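Calls come from follow-up tests whose scores are not deposited, so confirmed genes may have low counts here; counts are not normalised per plate.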 The raw values are shown without normalisation. Reagents against one gene are numbered here. A plus sign joins genes that one reagent is predicted to hit. No sequences are given here.

| gene | dsRNA no. | mitotic cells, replicate 1 | mitotic cells, replicate 2 | Outcome |
| --- | --- | --- | --- | --- |
| cup (GeneID 33934) | 1 | 10 | – | inactive |
| cup (GeneID 33934) | 2 | 10 | – | inactive |
| CG32532 (GeneID 32943) | 1 | 4 | – | inactive |
| CG32532 (GeneID 32943) | 2 | 8 | – | inactive |
| CG32532 (GeneID 32943) | 3 | 10 | – | inactive |
| FucTA (GeneID 39653) | 1 | 5 | – | inactive |
| Dark (GeneID 36914) | 1 | 5 | – | inactive |
| Dark (GeneID 36914) | 2 | 4 | – | inactive |
| Tsp3A (GeneID 31244) | 1 | 14 | – | inactive |
| Tsp3A (GeneID 31244) | 2 | 6 | – | inactive |
| CG3065 (GeneID 37818) | 1 | 4 | – | inactive |
| CG10195 (GeneID 35228) | 1 | 1 | – | inactive |
| CG17290 (GeneID 36938) | 1 | 3 | – | inactive |
| CG17290 (GeneID 36938) | 2 | 4 | – | inactive |
| CG30419 (GeneID 37879) | 1 | 2 | 18 | inactive |
| CG30419 (GeneID 37879) | 2 | 8 | – | inactive |
| CG30419 (GeneID 37879) | 3 | 8 | – | inactive |
| HP4 (GeneID 38887) | 1 | 3 | – | inactive |
| CG4928 (GeneID 32682) | 1 | 8 | – | inactive |
| CG4928 (GeneID 32682) | 2 | 10 | – | inactive |
| Gfrl (GeneID 3346162) | 1 | 7 | – | inactive |
| Gfrl (GeneID 3346162) | 2 | 8 | – | inactive |
| Gfrl (GeneID 3346162) | 3 | 13 | – | inactive |
| Gfrl (GeneID 3346162) | 4 | 7 | – | inactive |
| Gfrl (GeneID 3346162) | 5 | 4 | – | inactive |
| Gfrl (GeneID 3346162) | 6 | 9 | – | inactive |
| Gfrl (GeneID 3346162) | 7 | 11 | – | inactive |
| Gfrl (GeneID 3346162) | 8 | 4 | – | inactive |
| CG7294 (GeneID 34470) | 1 | 4 | – | inactive |
| CG7294 (GeneID 34470) | 2 | 7 | – | inactive |
| CG1622 (GeneID 32282) | 1 | 1 | – | inactive |
| CG1622 (GeneID 32282) | 2 | 12 | – | inactive |
| PEK (GeneID 40653) | 1 | 6 | – | inactive |
| Ctr9 (GeneID 38149) | 1 | 6 | – | inactive |
| Ctr9 (GeneID 38149) | 2 | 3 | – | inactive |
| twf (GeneID 41719) | 1 | 11 | – | inactive |
| CG14352 (GeneID 33341) | 1 | – | – | inactive |
| CG9953 (GeneID 38763) | 1 | 5 | – | inactive |
| SkpD (GeneID 32995) | 1 | 6 | – | inactive |
| Vha100-1 (GeneID 43442) | 1 | 3 | – | inactive |
| Vha100-1 (GeneID 43442) | 2 | 6 | – | inactive |
| CG14803 (GeneID 31142) | 1 | 14 | – | inactive |
| tapas (GeneID 37304) | 1 | 5 | – | inactive |
| Targ2 (GeneID 326246) | 1 | 9 | – | inactive |
| CG4287 (GeneID 41939) | 1 | 11 | – | inactive |
| CG4287 (GeneID 41939) | 2 | 3 | – | inactive |
| CG6330 (GeneID 43240) | 1 | 4 | – | inactive |
| eater (GeneID 43262) | 1 | 10 | – | inactive |
| eater (GeneID 43262) | 2 | 5 | – | inactive |
| eater (GeneID 43262) | 3 | 8 | – | inactive |
| CG5934 (GeneID 43289) | 1 | 10 | – | inactive |
| CG5934 (GeneID 43289) | 2 | 7 | – | inactive |
| swaPsi (GeneID 3771807) | 1 | 3 | – | inactive |
| CG4476 (GeneID 39056) | 1 | 3 | – | inactive |
| CG4476 (GeneID 39056) | 2 | 3 | – | inactive |
| MED22 (GeneID 31038) | 1 | 15 | – | inactive |
| CG31244 (GeneID 326129) | 1 | 4 | – | inactive |
| RPA2 (GeneID 35364) | 1 | 18 | – | inactive |
| RPA2 (GeneID 35364) | 2 | 12 | – | inactive |
| CG13324 (GeneID 36434) | 1 | 7 | – | inactive |
| Moe (GeneID 31816) | 1 | 3 | – | inactive |
| Moe (GeneID 31816) | 2 | 7 | – | inactive |
| phu (GeneID 41135) | 1 | 10 | – | inactive |
| CG14563 (GeneID 40435) | 1 | 9 | – | inactive |
| Atac2 (GeneID 35113) | 1 | 3 | – | inactive |
| Idh3b (GeneID 42586) | 1 | 5 | – | inactive |
| Idh3b (GeneID 42586) | 2 | 7 | – | inactive |
| CG14535 (GeneID 34073) | 1 | – | – | inactive |
| CG42245 + MEP-1 | 1 | 8 | – | inactive |
| CG42245 + MEP-1 | 2 | 9 | – | inactive |
| CG42245 + MEP-1 | 3 | 41 | – | inactive |
| CG42245 + MEP-1 | 4 | 9 | – | inactive |
| CG33493 (GeneID 2768994) | 1 | 8 | – | inactive |
| CG33493 (GeneID 2768994) | 2 | 8 | – | inactive |
| CG14331 (GeneID 42099) | 1 | 14 | – | inactive |
| tank (GeneID 33684) | 1 | 9 | – | inactive |
| eIF3k (GeneID 37475) | 1 | 3 | – | inactive |
| eIF3k (GeneID 37475) | 2 | 4 | – | inactive |
| Nin (GeneID 33757) | 1 | 5 | – | inactive |
| Gyc89Da (GeneID 42001) | 1 | 3 | – | inactive |
| Osi18 (GeneID 40775) | 1 | 5 | – | inactive |
| lqf (GeneID 38846) | 1 | 7 | – | inactive |
| lqf (GeneID 38846) | 2 | 5 | – | inactive |
| asl (GeneID 40682) | 1 | 9 | – | inactive |
| PGRP-LA (GeneID 39062) | 1 | 5 | – | inactive |
| PGRP-LA (GeneID 39062) | 2 | 5 | – | inactive |
| CG17572 (GeneID 35182) | 1 | 6 | – | inactive |
| CG15695 (GeneID 42468) | 1 | 12 | – | inactive |
| CG15695 (GeneID 42468) | 2 | 11 | – | inactive |
| mRpL37 (GeneID 41293) | 1 | 8 | – | inactive |
| Vps20 (GeneID 37581) | 1 | 2 | – | inactive |
| Crtp (GeneID 44276) | 1 | 5 | – | inactive |
| Crtp (GeneID 44276) | 2 | 5 | – | inactive |
| CG31191 (GeneID 42477) | 1 | 12 | – | inactive |
| CG4960 (GeneID 43115) | 1 | 8 | – | inactive |
| CG4960 (GeneID 43115) | 2 | 7 | – | inactive |
| CG13723 (GeneID 39925) | 1 | 4 | – | inactive |
| CG7810 (GeneID 34139) | 1 | 9 | – | inactive |
| CG7810 (GeneID 34139) | 2 | 10 | – | inactive |
| CG16890 (GeneID 34781) | 1 | 7 | – | inactive |
| CG16890 (GeneID 34781) | 2 | 7 | – | inactive |
| CG9286 (GeneID 41690) | 1 | 5 | – | inactive |
| CG9286 (GeneID 41690) | 2 | 3 | – | inactive |
| jeb (GeneID 36295) | 1 | 7 | – | inactive |
| jeb (GeneID 36295) | 2 | 3 | – | inactive |
| jeb (GeneID 36295) | 3 | 1 | – | inactive |
| CG33475 (GeneID 2768724) | 1 | 6 | – | inactive |
| Or33b (GeneID 34602) | 1 | 7 | – | inactive |
| pirk (GeneID 37468) | 1 | 6 | – | inactive |
| Pepck1 (GeneID 37131) | 1 | 1 | – | inactive |
| Pepck1 (GeneID 37131) | 2 | 3 | – | inactive |
